Reference: article PMC12902297
Construct, isoform or probe ends are uncertain for at least one entry.

Test system: MBP-OsbHLH35 (Oryza sativa)
Assay: EMSA
Conditions: among strongest of the sites; EMSA: binding buffer 10 mM Tris-HCl pH 7.5, 50 mM KCl, 3.5 mM DTT, 0.25% Tween 20, 5% glycerol, 5 mM MgCl2; recombinant protein; protein details: MBP; label: FAM

“GAGCACCCGCAATGGTAAAGTAATG (double strand) [BS1]”: binds.
